Data published in article PMC10944492.
No constants are given. Whether binding was seen depends on the method and setting. Binding seen in cells or lysates may run through a third protein. Some entries that bind do so weakly or less than the wild type. For some of these results: Sequences can lack the tags named with a protein.

The chains behind the UniProt entries cited, without tags or fusion partners.
UniProt P05412: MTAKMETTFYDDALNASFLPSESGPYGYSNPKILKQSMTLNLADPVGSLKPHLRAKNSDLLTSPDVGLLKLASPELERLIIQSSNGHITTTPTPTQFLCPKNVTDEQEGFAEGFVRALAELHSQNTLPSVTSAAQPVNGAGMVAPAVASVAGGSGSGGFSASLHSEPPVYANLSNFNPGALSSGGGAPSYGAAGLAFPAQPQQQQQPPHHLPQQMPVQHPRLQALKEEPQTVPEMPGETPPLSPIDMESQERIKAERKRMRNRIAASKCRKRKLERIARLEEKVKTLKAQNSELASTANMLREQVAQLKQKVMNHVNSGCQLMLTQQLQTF
UniProt P16220: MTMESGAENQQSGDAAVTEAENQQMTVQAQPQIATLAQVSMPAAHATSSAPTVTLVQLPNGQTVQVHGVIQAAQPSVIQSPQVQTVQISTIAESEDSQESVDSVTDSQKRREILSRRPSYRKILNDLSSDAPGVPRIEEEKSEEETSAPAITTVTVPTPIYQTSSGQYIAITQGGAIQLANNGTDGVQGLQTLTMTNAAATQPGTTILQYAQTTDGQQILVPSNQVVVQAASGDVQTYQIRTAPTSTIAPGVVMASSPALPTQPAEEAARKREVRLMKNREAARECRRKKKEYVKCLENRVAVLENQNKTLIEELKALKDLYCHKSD
UniProt P01100: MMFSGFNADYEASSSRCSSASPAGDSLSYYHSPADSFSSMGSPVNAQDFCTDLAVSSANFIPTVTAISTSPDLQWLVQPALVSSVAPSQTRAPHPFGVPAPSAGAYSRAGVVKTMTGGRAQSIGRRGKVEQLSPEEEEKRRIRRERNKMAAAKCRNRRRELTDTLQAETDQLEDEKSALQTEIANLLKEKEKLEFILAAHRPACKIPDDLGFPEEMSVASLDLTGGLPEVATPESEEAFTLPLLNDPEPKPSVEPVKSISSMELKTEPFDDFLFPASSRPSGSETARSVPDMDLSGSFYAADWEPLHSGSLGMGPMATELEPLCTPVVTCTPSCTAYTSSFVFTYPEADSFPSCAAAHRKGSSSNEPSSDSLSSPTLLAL
UniProt P70210: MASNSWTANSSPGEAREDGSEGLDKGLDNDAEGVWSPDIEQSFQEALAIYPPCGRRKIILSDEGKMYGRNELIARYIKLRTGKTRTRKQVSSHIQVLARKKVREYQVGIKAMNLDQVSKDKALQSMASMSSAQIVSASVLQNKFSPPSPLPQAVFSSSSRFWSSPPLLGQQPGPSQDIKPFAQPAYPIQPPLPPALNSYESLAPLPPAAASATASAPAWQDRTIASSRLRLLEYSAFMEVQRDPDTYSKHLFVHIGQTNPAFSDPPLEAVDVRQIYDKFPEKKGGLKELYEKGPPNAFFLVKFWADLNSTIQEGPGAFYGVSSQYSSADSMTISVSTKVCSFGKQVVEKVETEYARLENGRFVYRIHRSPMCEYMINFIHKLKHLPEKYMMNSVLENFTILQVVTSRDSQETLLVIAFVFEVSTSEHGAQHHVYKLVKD

Experiments:
[1] = biological target: T1, NFATC1 pulled down from control, MALAT1-knockout and Malat1-restored HEK293T cells (UniProt O88942); assay: co-IP; NFATC1 pulled down from control, MALAT1-knockout and Malat1-restored HEK293T cells; blots with antibodies against FOS, JUN and CREB1
T1 sequence: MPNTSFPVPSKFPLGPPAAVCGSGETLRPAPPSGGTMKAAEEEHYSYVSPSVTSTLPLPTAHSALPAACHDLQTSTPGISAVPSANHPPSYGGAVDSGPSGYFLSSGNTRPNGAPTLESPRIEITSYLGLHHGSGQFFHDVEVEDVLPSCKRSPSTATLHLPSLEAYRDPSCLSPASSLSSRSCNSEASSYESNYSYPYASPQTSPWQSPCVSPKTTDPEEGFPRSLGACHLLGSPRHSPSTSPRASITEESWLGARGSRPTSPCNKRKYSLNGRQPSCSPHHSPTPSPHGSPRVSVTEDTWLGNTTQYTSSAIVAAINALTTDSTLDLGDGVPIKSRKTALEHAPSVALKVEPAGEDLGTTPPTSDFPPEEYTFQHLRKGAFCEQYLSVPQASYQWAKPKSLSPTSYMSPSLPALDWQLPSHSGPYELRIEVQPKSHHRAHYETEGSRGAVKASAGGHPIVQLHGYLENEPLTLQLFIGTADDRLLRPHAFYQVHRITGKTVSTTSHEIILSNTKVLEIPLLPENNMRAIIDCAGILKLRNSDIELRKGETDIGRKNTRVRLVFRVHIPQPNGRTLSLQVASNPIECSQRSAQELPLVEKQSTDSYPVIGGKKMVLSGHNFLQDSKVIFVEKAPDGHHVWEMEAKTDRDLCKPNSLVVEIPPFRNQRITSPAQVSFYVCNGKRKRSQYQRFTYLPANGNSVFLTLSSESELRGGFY

[2] = biological target: T2, SFB-tagged mouse Nfatc1, full-length (mouse) (UniProt O88942); assay: co-IP; HEK293T cells (also MALAT1-knockout and Malat1-restored HEK293T) co-transfected with SFB-Nfatc1 and MYC-Tead3; RIPA lysis, sonication; precipitated with S-protein beads or anti-MYC beads at 4 °C overnight; blots for MYC and FLAG
T2 sequence: T1 sequence

Substance	binding [1]	binding [2]
JUN (from UniProt P05412 1-331)	binds	
CREB1 (from UniProt P16220 1-327)	binds	
FOS (from UniProt P01100 1-380)	no binding	
MYC-tagged mouse Tead3, full-length (from UniProt P70210 1-439)		binds
